The name of at least one read-out is uncertain.
Assay: In vitro paclitaxel release by dialysis in PBS at 37° C.
Format: physicochemical
Conditions: dialysis against PBS at 37° C.

Q: With `CC(=O)O[C@H]1C(=O)[C@@]2(C)[C@H]([C@H](OC(=O)c3ccccc3)[C@]3(O)C[C@H](OC(=O)[C@H](O)[C@@H](NC(=O)c4ccccc4)c4ccccc4)C(C)=C1C3(C)C)[C@]1(OC(C)=O)CO[C@@H]1C[C@@H]2O` [paclitaxel] as the compound, how does the drug release half-life read?
A: approximately 10.5 h
